PMC6720459
Results are given in words; binding and its absence hold for the method and conditions named. In cells and extracts the contact can be indirect. Here binding means that the protein was enriched with, or labelled near, the bait; the list need not be complete.

By UniProt entry, the sequences of proteins in these tests, tags left out. Where a name states a change or a piece, a line headed by the entry shows the natural chain unless it says otherwise.
UniProt Q9EPK8: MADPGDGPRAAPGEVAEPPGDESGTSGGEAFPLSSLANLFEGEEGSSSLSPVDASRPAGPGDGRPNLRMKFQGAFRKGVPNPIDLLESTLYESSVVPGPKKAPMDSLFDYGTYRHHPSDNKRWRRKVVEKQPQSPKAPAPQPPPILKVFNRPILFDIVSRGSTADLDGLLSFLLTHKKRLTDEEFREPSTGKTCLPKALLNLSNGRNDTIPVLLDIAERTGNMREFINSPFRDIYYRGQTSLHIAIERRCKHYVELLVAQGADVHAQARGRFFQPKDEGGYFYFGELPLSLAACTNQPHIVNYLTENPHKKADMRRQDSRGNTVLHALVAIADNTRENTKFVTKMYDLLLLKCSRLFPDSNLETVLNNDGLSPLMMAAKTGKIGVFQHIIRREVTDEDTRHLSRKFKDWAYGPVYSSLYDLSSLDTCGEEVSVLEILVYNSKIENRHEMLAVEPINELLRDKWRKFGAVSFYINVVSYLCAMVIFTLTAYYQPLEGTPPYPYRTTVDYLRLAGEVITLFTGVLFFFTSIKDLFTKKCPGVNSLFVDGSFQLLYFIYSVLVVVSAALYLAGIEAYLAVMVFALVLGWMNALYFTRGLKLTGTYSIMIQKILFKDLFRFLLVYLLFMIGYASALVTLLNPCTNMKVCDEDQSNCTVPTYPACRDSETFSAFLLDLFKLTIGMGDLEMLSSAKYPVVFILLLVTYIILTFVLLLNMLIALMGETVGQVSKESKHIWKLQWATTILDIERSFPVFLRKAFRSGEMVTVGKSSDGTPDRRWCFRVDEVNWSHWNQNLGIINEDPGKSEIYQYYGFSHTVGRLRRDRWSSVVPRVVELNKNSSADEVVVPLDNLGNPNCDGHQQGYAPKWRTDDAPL
UniProt P50516: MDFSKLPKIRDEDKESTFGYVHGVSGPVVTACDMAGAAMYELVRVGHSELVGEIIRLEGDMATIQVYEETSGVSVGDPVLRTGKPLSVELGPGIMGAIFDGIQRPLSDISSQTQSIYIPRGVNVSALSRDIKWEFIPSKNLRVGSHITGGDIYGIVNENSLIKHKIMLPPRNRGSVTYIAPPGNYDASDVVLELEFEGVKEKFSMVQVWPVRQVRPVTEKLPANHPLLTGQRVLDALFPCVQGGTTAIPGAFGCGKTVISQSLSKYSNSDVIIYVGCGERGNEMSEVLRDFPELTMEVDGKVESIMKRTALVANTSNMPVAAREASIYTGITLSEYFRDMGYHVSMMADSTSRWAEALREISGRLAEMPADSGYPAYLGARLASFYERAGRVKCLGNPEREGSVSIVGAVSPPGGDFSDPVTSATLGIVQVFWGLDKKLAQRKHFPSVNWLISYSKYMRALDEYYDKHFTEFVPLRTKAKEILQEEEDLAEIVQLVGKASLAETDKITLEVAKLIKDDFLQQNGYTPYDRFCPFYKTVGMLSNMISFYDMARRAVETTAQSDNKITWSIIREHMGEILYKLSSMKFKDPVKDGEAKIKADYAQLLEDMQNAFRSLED

Molecular target: T1, ALDOA (bait of the co-immunoprecipitation analysed by mass spectrometry) (UniProt P05064)
T1 sequence: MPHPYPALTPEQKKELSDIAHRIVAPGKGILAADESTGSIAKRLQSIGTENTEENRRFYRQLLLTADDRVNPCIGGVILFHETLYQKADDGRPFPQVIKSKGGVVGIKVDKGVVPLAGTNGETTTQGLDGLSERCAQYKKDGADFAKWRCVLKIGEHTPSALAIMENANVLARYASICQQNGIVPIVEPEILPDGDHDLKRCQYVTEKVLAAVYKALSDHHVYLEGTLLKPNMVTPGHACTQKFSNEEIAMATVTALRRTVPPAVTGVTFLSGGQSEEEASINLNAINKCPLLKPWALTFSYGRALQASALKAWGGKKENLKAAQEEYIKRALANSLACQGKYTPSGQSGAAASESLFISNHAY
Test: affinity purification with mass spectrometry; protein complexes co-immunoprecipitated with ALDOA from light organelle fractions containing lysosomes

| binding | Substance |
| --- | --- |
| binds | TRPV4 (hit of the ALDOA mass spectrometry) (from UniProt Q9EPK8 1-871) |
| binds | PFK1 (enzyme) |
| binds | v-ATPase subunit V1A (from UniProt P50516 1-617) |
